The record followed here is PMC5814163.

The chains behind the UniProt entries cited, without tags or fusion partners.
UniProt P52630: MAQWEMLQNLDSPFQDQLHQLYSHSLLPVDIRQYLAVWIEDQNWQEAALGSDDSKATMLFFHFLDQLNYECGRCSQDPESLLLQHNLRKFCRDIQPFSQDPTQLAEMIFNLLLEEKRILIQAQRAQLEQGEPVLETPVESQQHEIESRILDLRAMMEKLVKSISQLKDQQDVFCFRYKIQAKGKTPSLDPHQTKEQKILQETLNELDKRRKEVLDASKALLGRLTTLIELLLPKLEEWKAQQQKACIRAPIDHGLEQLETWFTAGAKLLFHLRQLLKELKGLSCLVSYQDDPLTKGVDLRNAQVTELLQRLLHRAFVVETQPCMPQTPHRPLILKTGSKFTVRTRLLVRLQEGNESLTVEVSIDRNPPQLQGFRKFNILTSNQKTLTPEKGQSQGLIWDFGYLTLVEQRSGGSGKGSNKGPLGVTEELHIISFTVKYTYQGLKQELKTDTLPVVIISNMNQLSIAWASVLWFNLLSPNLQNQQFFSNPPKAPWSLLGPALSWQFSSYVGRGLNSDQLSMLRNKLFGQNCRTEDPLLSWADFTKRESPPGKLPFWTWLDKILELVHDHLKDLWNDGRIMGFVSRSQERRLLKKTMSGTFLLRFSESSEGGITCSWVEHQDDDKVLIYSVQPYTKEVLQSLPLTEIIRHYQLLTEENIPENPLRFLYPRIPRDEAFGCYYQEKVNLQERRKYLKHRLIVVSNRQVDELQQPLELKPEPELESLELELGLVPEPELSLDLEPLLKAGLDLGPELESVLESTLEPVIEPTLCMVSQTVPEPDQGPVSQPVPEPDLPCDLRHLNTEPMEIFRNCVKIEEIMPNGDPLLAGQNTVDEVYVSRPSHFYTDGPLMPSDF
UniProt P42224: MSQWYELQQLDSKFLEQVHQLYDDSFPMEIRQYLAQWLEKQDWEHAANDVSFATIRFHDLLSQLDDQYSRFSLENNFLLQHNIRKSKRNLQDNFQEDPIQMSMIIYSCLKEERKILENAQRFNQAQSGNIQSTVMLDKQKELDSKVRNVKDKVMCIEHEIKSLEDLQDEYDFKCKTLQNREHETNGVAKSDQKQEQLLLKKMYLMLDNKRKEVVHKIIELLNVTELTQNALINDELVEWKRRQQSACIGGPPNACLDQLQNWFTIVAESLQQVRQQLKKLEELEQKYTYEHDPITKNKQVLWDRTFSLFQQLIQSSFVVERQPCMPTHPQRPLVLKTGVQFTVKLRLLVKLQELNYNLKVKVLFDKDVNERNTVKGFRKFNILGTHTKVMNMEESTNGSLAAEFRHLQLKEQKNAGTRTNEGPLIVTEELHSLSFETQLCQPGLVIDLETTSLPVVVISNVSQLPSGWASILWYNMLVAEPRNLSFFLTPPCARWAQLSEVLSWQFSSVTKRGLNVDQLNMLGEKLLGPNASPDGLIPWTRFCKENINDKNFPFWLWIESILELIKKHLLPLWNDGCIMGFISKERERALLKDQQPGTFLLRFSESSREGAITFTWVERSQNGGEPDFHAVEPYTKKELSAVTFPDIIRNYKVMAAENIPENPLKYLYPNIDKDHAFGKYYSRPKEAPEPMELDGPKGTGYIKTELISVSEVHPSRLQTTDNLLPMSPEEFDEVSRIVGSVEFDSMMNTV

The target of experiment [1] is STAT2 (human (endogenous in HepaRG)) (UniProt P52630). Kind of experiment: co-IP; HepaRG cells transfected with NS5A expression vectors, 48 h, then IFN-α for 30 min; lysates immunoprecipitated with anti-STAT1 or anti-STAT2 antibody; immunoblot for NS5A. (In western blotting, separated proteins are transferred to a membrane and probed.)
In experiment [2] the target is STAT1 (human (endogenous in HepaRG)) (UniProt P42224). Described as above.
In experiment [3] the target is NS5A of the Con1 strain expressed from the vector pCAG/5ACon1 (hepatitis C virus genotype 1b, Con1 strain) (UniProt Q9WMX2). Kind of experiment: co-IP; HepaRG cells transfected with NS5A expression vectors, 48 h, then IFN-α for 30 min; lysates immunoprecipitated with an anti-NS5A antibody; immunoblot with anti-STAT1, anti-pSTAT1 and anti-STAT2 antibodies.

No constants are given. Whether binding was seen depends on the method and setting. In cells and extracts the contact can be indirect. Some entries that bind do so weakly or less than the wild type.

Consider “NS5A of the Con1 strain expressed from the vector pCAG/5ACon1 (from UniProt Q9WMX2 1973-2419)”, for which the binding result in experiment [1] is “no binding”; in experiment [2] it was “binds”.

Consider STAT1 (from UniProt P42224 1-750), for which the binding result in experiment [3] is “binds”.

Turning to STAT2 (from UniProt P52630 1-851), the binding entry in experiment [3] was “no binding”.
